Results are given in words; binding and its absence hold for the method and conditions named. Binding seen in cells or lysates may run through a third protein. Some results given as binding are weak or reduced against the parent protein; the word gives no strength. For part of these data: Tags and fused reporters may be left off the sequences shown.
Columns and labels:
p37AUF1-eCFP = p37AUF1-eCFP (UniProt Q14103); assay: FRET or BRET; traditional FRET between eCFP and eYFP tagged proteins transiently transfected into DDT1-MF2 cells; FRETc images of live or fixed cells, room temperature; control cells, 0.5 mM sodium arsenite 30 min, or 75 nM anisomycin 24 h
KSRP-eCFP = target: T1, KSRP-eCFP (UniProt Q92945); assay: as above
T1 sequence: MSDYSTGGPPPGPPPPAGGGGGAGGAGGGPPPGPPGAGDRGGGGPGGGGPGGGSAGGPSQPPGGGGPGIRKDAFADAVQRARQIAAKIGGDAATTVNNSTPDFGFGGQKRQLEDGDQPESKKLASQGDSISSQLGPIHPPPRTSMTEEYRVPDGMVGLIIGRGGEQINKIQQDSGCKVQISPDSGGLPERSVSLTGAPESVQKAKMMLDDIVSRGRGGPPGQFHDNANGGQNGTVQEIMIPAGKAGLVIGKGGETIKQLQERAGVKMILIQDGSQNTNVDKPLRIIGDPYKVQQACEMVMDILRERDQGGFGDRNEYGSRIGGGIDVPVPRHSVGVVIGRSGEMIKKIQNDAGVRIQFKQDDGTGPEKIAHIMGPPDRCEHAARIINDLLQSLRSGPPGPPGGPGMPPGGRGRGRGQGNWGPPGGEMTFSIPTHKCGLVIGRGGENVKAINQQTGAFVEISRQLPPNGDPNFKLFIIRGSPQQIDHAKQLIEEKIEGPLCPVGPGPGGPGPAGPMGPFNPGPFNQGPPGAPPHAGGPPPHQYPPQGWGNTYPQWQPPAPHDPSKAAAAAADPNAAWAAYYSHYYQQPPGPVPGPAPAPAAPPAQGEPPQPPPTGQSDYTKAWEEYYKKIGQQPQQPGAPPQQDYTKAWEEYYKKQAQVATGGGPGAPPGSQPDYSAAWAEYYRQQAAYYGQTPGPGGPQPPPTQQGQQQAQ

Protein sequences, listed by entry. Tags and fused reporters are not part of them. Lines headed by an entry give the natural chain unless they say otherwise; changes in a name come on top. Chains listed by the source or under a name are the forms on record and can include a tag or linker.
p37AUF1-eYFP (Q14103-4, form named): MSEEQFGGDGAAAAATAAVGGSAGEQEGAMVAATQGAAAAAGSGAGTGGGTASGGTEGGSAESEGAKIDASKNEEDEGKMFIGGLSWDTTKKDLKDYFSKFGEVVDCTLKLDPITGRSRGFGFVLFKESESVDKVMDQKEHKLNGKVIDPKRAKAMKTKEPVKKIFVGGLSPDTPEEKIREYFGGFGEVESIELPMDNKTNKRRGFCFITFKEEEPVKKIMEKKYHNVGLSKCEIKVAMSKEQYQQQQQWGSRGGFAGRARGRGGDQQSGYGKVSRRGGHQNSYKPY
UniProt Q15717: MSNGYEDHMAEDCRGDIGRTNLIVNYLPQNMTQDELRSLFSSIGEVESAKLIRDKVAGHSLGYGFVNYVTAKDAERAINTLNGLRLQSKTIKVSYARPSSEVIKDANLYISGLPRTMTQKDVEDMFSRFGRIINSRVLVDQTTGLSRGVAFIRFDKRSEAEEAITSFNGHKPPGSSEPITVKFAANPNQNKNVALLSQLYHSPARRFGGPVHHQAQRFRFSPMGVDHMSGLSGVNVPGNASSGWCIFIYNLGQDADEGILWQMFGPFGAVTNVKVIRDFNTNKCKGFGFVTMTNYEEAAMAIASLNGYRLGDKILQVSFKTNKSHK

binding (p37AUF1-eCFP) | binding (KSRP-eCFP) | Substance
binds | binds | HuR-eYFP (from UniProt Q15717 1-326)
– | binds | p37AUF1-eYFP (from UniProt Q14103-4 1-287)
